Ten compounds from PubChem BioAssay AID270 (DTP/NCI, 2004) can be followed below.

The list is a part of this screen's results and no random one: it gathers tests that were run many times, whatever their T/C, doses with no T/C, and many T/C values between a quarter and a half above the control. Other doses and runs of a compound stand elsewhere. T/C is the treated group as % of the vehicle group. Schedules are NCI's codes, read here as Q, the interval in days (D) or hours (H), X, the number of doses. Some entries give survivors of the animals treated and no T/C: the source holds a T/C of zero for them, seemingly a mark for toxic or unscored doses. Some doses without a T/C left all or most animals alive at the check, yet need not have been tolerated: survival well below the control is almost never listed, so the zero probably covers shortened survival too. Survivors were counted at the toxicity check, usually on the fifth day, unless a day is given; later deaths do not show. Counts like (3×) give the number of equal values in this list. Some doses were run more than once; their values stand side by side, smallest first. For survival time, the PubChem record calls one and a half times the control and up active, and a quarter to a half above the control has no call in these data; cut-offs in other NCI protocols can differ. Some T/C values carry the count of animals alive at the toxicity check (mostly the fifth day); where none is given, no animal had died by that day.

This test relates to BDF1 mice, s.c. Lewis lung carcinoma, T/C %. The test can be described thus: NCI In Vivo Anticancer Drug Screen. Data for tumor model Lewis Lung Carcinoma (subcutaneous) in B6D2F1 (BDF1) mice. The procedure:
The antitumor activity of compounds was measured in mice bearing transplantable tumors. Survival or tumor size were measured and the results are expressed as the measurement made in the treated group (T) divided by the measurement made in the vehicle treated control group (C). The tumor model used in this assay is Lewis Lung Carcinoma (subcutaneous) in B6D2F1 (BDF1) mice

The mark [1] stands for this setting: T/C endpoint: median survival time, dose: 1.0 mg/kg/injection, schedule: Q01DX009 (ip), vehicle: saline, higher T/C = longer survival.
Where [2] appears, read: T/C endpoint: median survival time, dose: 8.0 mg/kg/injection, schedule: Q01DX009 (ip), vehicle: saline, higher T/C = longer survival.
[3] abbreviates: T/C endpoint: median survival time, dose: 25.0 mg/kg/injection, schedule: Q01DX001 (ip), vehicle: saline, higher T/C = longer survival.

Consider `N[C@@H](Cc1ccc(N(CCCl)CCCl)cc1)C(=O)O`, for which the T/C reads like this: (T/C endpoint: median survival time, dose: 0.16 mg/kg/injection, schedule: Q01DX009 (ip), vehicle: saline, higher T/C = longer survival) 130 % of control; (T/C endpoint: median survival time, dose: 0.62 mg/kg/injection, schedule: Q01DX009 (ip), vehicle: saline, higher T/C = longer survival) 125 % of control; under setting [1], 140 % of control; (T/C endpoint: median survival time, dose: 1.0 mg/kg/injection, schedule: Q04DX003 (ip), vehicle: saline, higher T/C = longer survival) 125 % of control; (T/C endpoint: median survival time, dose: 2.0 mg/kg/injection, schedule: Q04DX003 (ip), vehicle: saline, higher T/C = longer survival) 137 % of control; (T/C endpoint: median survival time, dose: 3.24 mg/kg/injection, schedule: Q01DX001 (ip), vehicle: saline, evaluated on day 6, higher T/C = longer survival) 83, 108, 120 % of control. In addition, the T/C (T/C endpoint: median survival time, dose: 3.24 mg/kg/injection, schedule: Q01DX001 (ip), vehicle: saline, evaluated on day 50, higher T/C = longer survival) is 77 % of control; the T/C (T/C endpoint: median survival time, dose: 3.24 mg/kg/injection, schedule: Q01DX001 (ip), vehicle: saline, evaluated on day 100, higher T/C = longer survival) is 111 % of control; the T/C (T/C endpoint: median survival time, dose: 5.4 mg/kg/injection, schedule: Q01DX001 (ip), vehicle: saline, evaluated on day 6, higher T/C = longer survival) is listed as 104, 109, 120 % of control; the T/C (T/C endpoint: median survival time, dose: 5.4 mg/kg/injection, schedule: Q01DX001 (ip), vehicle: saline, evaluated on day 50, higher T/C = longer survival) is 102 % of control; the T/C (T/C endpoint: median survival time, dose: 5.4 mg/kg/injection, schedule: Q01DX001 (ip), vehicle: saline, evaluated on day 100, higher T/C = longer survival) is 111 % of control; the T/C (T/C endpoint: median survival time, dose: 9.0 mg/kg/injection, schedule: Q01DX001 (ip), vehicle: saline, evaluated on day 6, higher T/C = longer survival) was 90, 112, 138 % of control. Moreover, the T/C was 88 % of control [9 of 10 alive on day 50] (T/C endpoint: median survival time, dose: 9.0 mg/kg/injection, schedule: Q01DX001 (ip), vehicle: saline, evaluated on day 50, higher T/C = longer survival); 136 % of control (T/C endpoint: median survival time, dose: 9.0 mg/kg/injection, schedule: Q01DX001 (ip), vehicle: saline, evaluated on day 100, higher T/C = longer survival); 94, 115, 123 % of control (T/C endpoint: median survival time, dose: 15.0 mg/kg/injection, schedule: Q01DX001 (ip), vehicle: saline, evaluated on day 6, higher T/C = longer survival); 113 % of control (T/C endpoint: median survival time, dose: 15.0 mg/kg/injection, schedule: Q01DX001 (ip), vehicle: saline, evaluated on day 50, higher T/C = longer survival); 116 % of control (T/C endpoint: median survival time, dose: 15.0 mg/kg/injection, schedule: Q01DX001 (ip), vehicle: saline, evaluated on day 100, higher T/C = longer survival); 26 [8 of 9 alive], 30, 37 % of control under setting [3]. Also, the survivor count (T/C endpoint: median survival time, dose: 1.25 mg/kg/injection, schedule: Q01DX001 (ip), vehicle: water, higher T/C = longer survival) was 10 of 10; the survivor count (T/C endpoint: median survival time, dose: 4.0 mg/kg/injection, schedule: Q01DX009 (ip), vehicle: saline with Tween-80, higher T/C = longer survival) is reported as 10 of 10; the survivor count (T/C endpoint: median survival time, dose: 5.0 mg/kg/injection, schedule: Q01DX001 (ip), vehicle: saline, higher T/C = longer survival) is given as 10 of 10; the survivor count (T/C endpoint: median survival time, dose: 6.0 mg/kg/injection, schedule: Q01DX009 (ip), vehicle: saline, higher T/C = longer survival) is 10 of 10; the survivor count (T/C endpoint: median survival time, dose: 8.0 mg/kg/injection, schedule: Q01DX009 (ip), vehicle: Klucel (hydroxypropylcellulose) (HPC), higher T/C = longer survival) was 10 of 10; the survivor count (T/C endpoint: median survival time, dose: 8.0 mg/kg/injection, schedule: Q01DX009 (ip), vehicle: saline with Tween-80, higher T/C = longer survival) is reported as 10 of 10. Besides, the survivor count runs as follows: under setting [2], 10 of 10; (T/C endpoint: median survival time, dose: 16.0 mg/kg/injection, schedule: Q01DX001 (ip), vehicle: saline, higher T/C = longer survival) 8 of 10; (T/C endpoint: median survival time, dose: 16.0 mg/kg/injection, schedule: Q04DX003 (ip), vehicle: saline, higher T/C = longer survival) 10 of 10; (T/C endpoint: median survival time, dose: 20.0 mg/kg/injection, schedule: Q01DX001 (ip), vehicle: saline, higher T/C = longer survival) 7 of 10; (T/C endpoint: median survival time, dose: 20.0 mg/kg/injection, schedule: Q01DX001 (ip), vehicle: water, higher T/C = longer survival) 7 of 10; under setting [3], 2 of 10 on day 50 and 2 of 8 on day 100. Also, the survivor count (T/C endpoint: median survival time, dose: 30.0 mg/kg/injection, schedule: Q01DX001 (ip), vehicle: water, higher T/C = longer survival) is 6 of 10; the survivor count (T/C endpoint: median survival time, dose: 32.0 mg/kg/injection, schedule: Q01DX001 (ip), vehicle: saline, higher T/C = longer survival) was 4 of 10; the survivor count (T/C endpoint: median tumor weight (est.), dose: 19.0 mg/kg/injection, schedule: Q01DX001 (ip), vehicle: carboxymethylcellulose (CMC), higher T/C = larger tumour) was 2 of 10 on day 19.

Turning to `CC[C@](O)(C(=O)O)c1cc2n(c(=O)c1CO)Cc1cc3ccccc3nc1-2`, the survivor count (T/C endpoint: median survival time, dose: 4.0 mg/kg/injection, schedule: Q01DX009 (ip), vehicle: saline, higher T/C = longer survival) is reported as 10 of 10 and the survivor count under setting [2] is on record as 10 of 10. Besides, the T/C is 137 % of control (T/C endpoint: median survival time, dose: 5.0 mg/kg/injection, schedule: Q04DX003 (ip), vehicle: saline, higher T/C = longer survival); 137 % of control (T/C endpoint: median survival time, dose: 10.0 mg/kg/injection, schedule: Q04DX003 (ip), vehicle: saline, higher T/C = longer survival); 131 % of control (T/C endpoint: median survival time, dose: 20.0 mg/kg/injection, schedule: Q04DX003 (ip), vehicle: saline, higher T/C = longer survival); 135 % of control (T/C endpoint: median survival time, dose: 40.0 mg/kg/injection, schedule: Q04DX003 (ip), vehicle: saline, higher T/C = longer survival).

On to `COC(C(=O)C(O)C(C)O)C1Cc2cc3cc(OC4CC(OC5CC(O)C(O)C(C)O5)C(O)C(C)O4)c(C)c(O)c3c(O)c2C(=O)C1OC1CC(OC2CC(O)C(OC3CC(C)(O)C(O)C(C)O3)C(C)O2)C(O)C(C)O1` (centres undefined), for which the T/C (T/C endpoint: median survival time, dose: 0.25 mg/kg/injection, schedule: Q01DX009 (ip), vehicle: saline, higher T/C = longer survival) was 125 % of control. Besides, the survivor count (T/C endpoint: median survival time, dose: 0.5 mg/kg/injection, schedule: Q01DX009 (ip), vehicle: saline, higher T/C = longer survival) is listed as 9 of 10; the survivor count under setting [1] was 5 of 10 and 8 of 10; the survivor count (T/C endpoint: median survival time, dose: 2.0 mg/kg/injection, schedule: Q01DX009 (ip), vehicle: saline, higher T/C = longer survival) is 0 of 10.

`CN(C)c1nc(N(C)C)nc(N(C)C)n1`: under “T/C endpoint: median survival time, dose: 12.5 mg/kg/injection, schedule: Q08HX024 (ip), vehicle: Klucel (hydroxypropylcellulose) (HPC), higher T/C = longer survival”, the T/C was 125 % of control [9 of 10 alive]. In addition, the survivor count (T/C endpoint: median survival time, dose: 50.0 mg/kg/injection, schedule: Q08HX024 (ip), vehicle: Klucel (hydroxypropylcellulose) (HPC), higher T/C = longer survival) is 8 of 10; the survivor count (T/C endpoint: median survival time, dose: 100.0 mg/kg/injection, schedule: Q01DX009 (ip), vehicle: saline with Tween-80, higher T/C = longer survival) is 10 of 10; the survivor count (T/C endpoint: median survival time, dose: 100.0 mg/kg/injection, schedule: Q08HX024 (ip), vehicle: Klucel (hydroxypropylcellulose) (HPC), higher T/C = longer survival) was 1 of 10; the survivor count (T/C endpoint: median survival time, dose: 200.0 mg/kg/injection, schedule: Q01DX009 (ip), vehicle: saline with Tween-80, higher T/C = longer survival) is 10 of 10 (2×); the survivor count (T/C endpoint: median survival time, dose: 200.0 mg/kg/injection, schedule: Q08HX024 (ip), vehicle: Klucel (hydroxypropylcellulose) (HPC), higher T/C = longer survival) is recorded as 0 of 10.

Take `CSc1ncc(Br)c(Sc2nc(N)nc3nc[nH]c23)n1`: the T/C (T/C endpoint: mean tumor weight, dose: 2.5 mg/kg/injection, schedule: Q01DX011 (ip), vehicle: other, evaluated on day 12, higher T/C = larger tumour) is 130 % of control. The survivor count (T/C endpoint: mean tumor weight, dose: 40.0 mg/kg/injection, schedule: Q01DX011 (ip), vehicle: other, higher T/C = larger tumour) is given as 1 of 6.

Regarding `CCC(C)n1ncc2c(N(C)C)ncnc21` (centres undefined), under “T/C endpoint: mean tumor weight, dose: 16.25 mg/kg/injection, schedule: Q01DX011 (ip), vehicle: carboxymethylcellulose (CMC), evaluated on day 12, higher T/C = larger tumour”, the T/C was 132 % of control.

`NCCCOc1ccc([N+](=O)[O-])cc1Cl`: the T/C runs as follows: (T/C endpoint: median survival time, dose: 12.5 mg/kg/injection, schedule: Q01DX009 (ip), vehicle: saline, higher T/C = longer survival) 136 % of control; (T/C endpoint: median survival time, dose: 25.0 mg/kg/injection, schedule: Q01DX009 (ip), vehicle: saline, higher T/C = longer survival) 146 % of control. Further, the survivor count (T/C endpoint: median survival time, dose: 200.0 mg/kg/injection, schedule: Q01DX009 (ip), vehicle: saline, higher T/C = longer survival) is reported as 2 of 10.

For `CCCCCC[N+](CCCCCC)(CCCCCC)CCCCCC`, the survivor count (T/C endpoint: median survival time, dose: 6.0 mg/kg/injection, schedule: Q01DX009 (ip), vehicle: Klucel (hydroxypropylcellulose) (HPC), higher T/C = longer survival) was 9 of 10.

Take `O=C1N(Cl)C(=O)C(c2ccc(Cl)cc2)(c2ccc(Cl)cc2)N1Cl`: the survivor count (T/C endpoint: median survival time, dose: 100.0 mg/kg/injection, schedule: Q01DX009 (ip), vehicle: Klucel (hydroxypropylcellulose) (HPC), higher T/C = longer survival) is reported as 10 of 10.

Regarding `N/N=C(\N)c1nn(C2OC(CO)C(O)C2O)c2ncnc(N)c12` (centres undefined), the survivor count was 4 of 4 (T/C endpoint: median survival time, dose: 160.0 mg/kg/injection, schedule: Q01DX005 (ip), vehicle: saline, higher T/C = longer survival) and 0 of 4 (T/C endpoint: median survival time, dose: 320.0 mg/kg/injection, schedule: Q01DX005 (ip), vehicle: saline, higher T/C = longer survival).
